Measured values published in paper PMC3406013.
These are yes or no findings as the source states them, for the method shown. Binding seen in cells or lysates may run through a third protein. Some entries that bind do so weakly or less than the wild type.

Amino acid sequences for entries named in this document (tags omitted). A change or cut given only in a name is not applied to a line headed by its entry.
UniProt Q7Z434: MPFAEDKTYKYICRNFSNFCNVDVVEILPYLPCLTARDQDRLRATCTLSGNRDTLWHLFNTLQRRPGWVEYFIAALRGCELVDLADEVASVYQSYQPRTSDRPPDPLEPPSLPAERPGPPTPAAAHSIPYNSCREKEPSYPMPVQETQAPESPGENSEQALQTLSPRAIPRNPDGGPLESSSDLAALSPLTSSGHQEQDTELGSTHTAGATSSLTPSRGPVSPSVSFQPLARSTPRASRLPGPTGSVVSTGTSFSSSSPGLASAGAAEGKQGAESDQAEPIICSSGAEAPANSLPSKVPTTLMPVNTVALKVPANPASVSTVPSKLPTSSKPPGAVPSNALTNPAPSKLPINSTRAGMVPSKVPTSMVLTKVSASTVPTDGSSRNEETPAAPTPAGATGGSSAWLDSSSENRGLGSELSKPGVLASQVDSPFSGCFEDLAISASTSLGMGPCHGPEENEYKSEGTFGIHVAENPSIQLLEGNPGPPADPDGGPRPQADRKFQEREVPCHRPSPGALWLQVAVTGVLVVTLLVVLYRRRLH
UniProt Q86WV6: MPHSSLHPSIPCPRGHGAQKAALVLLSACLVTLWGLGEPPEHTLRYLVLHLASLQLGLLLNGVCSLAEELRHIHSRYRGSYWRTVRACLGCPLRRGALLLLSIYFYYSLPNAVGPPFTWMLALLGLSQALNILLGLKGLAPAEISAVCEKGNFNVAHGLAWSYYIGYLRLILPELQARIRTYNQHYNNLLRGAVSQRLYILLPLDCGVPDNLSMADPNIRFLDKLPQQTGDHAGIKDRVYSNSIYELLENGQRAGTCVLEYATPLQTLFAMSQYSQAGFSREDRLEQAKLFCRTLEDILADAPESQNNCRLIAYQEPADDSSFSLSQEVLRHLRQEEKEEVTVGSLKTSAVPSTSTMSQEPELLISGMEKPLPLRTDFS

Molecular target: Flag-tagged MAVS Y9F mutant (human) (UniProt Q7Z434)
Assay: co-IP; HEK293T cotransfected with Flag-MAVS WT or Y9F and a Myc-tagged partner (RIG-I 2Card, STING, MAVS WT or Y9F); after 48 h lysates (1% Nonidet P-40) immunoprecipitated with anti-Flag; immunoblot with anti-Myc

- binding: binds
Substance: Myc-tagged STING (stimulator of interferon genes) (from UniProt Q86WV6 1-379)
